Data from PMC6317279.
Results are given in words; binding and its absence hold for the method and conditions named. Binding seen in cells or lysates may run through a third protein. Here binding means that the protein was enriched with, or labelled near, the bait; the list need not be complete. Sequences can lack the tags named with a protein.

Legend:
Assay in all cases: affinity purification with mass spectrometry; FLAG IP of overexpressed N- and C-terminally FLAG-tagged CRTC1-3 from HEK 293T cells after 10 uM forskolin for 1 hr; endogenous phosphatase subunits found by MS (spectral counts)
[1] = target: T1, FLAG-tagged CRTC1 (cAMP-regulated transcriptional coactivator 1) (mouse) (UniProt Q68ED7)
T1 sequence: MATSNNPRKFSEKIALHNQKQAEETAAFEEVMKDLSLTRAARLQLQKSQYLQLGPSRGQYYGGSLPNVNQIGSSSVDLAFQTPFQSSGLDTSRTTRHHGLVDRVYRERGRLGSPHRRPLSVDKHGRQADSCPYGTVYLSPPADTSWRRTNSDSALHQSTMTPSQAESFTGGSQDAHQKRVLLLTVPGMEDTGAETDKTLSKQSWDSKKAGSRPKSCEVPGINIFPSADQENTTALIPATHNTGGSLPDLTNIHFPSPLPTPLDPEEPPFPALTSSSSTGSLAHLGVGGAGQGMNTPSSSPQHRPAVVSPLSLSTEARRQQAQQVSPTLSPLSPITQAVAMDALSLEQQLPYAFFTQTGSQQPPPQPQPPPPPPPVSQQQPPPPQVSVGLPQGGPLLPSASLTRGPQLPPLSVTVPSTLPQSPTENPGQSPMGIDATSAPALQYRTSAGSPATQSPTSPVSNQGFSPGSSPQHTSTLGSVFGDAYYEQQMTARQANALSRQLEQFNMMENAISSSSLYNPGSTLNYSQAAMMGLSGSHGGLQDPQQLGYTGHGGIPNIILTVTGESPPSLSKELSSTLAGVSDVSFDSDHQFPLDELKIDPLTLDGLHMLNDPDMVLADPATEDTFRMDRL

[2] = target: T2, FLAG-tagged CRTC2 (cAMP-regulated transcriptional coactivator 2) (mouse) (UniProt Q3U182)
T2 sequence: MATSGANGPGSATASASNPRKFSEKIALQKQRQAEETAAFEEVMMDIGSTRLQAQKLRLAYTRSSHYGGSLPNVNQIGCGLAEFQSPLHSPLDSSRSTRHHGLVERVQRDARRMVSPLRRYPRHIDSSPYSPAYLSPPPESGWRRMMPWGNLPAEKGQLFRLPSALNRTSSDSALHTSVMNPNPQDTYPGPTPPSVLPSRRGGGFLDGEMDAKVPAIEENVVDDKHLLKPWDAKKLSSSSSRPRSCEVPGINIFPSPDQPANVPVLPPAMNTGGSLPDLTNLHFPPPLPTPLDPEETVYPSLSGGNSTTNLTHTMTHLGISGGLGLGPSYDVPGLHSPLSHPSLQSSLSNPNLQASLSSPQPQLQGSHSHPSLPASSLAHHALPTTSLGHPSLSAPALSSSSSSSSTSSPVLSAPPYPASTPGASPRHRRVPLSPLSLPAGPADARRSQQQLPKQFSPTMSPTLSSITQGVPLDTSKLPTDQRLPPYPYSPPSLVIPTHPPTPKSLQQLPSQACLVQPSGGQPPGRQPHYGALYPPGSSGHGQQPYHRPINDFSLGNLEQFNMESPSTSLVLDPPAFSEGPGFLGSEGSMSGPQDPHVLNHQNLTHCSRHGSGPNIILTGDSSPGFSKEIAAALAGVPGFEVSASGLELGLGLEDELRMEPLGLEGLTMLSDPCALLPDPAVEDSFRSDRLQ

[3] = target: T3, FLAG-tagged CRTC3 wild type (cAMP-regulated transcriptional coactivator 3) (mouse) (UniProt Q91X84)
T3 sequence: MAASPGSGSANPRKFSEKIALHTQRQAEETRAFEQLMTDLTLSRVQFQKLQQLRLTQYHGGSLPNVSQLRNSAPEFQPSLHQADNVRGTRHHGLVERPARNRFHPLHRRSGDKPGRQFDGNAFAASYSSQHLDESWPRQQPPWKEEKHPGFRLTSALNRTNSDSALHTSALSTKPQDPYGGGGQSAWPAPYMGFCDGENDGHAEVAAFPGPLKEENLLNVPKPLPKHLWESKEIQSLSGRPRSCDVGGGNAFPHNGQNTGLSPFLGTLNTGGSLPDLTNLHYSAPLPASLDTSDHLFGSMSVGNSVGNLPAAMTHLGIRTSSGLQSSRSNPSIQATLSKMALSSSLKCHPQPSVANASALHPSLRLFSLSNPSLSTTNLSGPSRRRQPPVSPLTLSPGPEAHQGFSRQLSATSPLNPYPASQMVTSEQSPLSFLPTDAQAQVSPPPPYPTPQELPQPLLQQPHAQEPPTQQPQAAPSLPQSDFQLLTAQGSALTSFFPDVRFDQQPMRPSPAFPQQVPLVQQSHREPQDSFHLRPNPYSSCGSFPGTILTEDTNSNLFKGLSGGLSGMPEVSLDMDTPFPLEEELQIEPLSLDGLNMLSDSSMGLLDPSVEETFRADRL

Measured: binding

protein phosphatase 1 (human (endogenous in HEK 293T)) (enzyme)
binds weakly: [1] | [2] | [3]
